Assay results reported in patent US9926581B2, “Fagopyritol synthase genes and uses thereof” (Cornell Research Foundation, Inc., priority 2002, dated 2018).
“And” between values parts separate entries of the source, which are not always exact repeats. Equal entries are not always repeated.

Experiments:
[1] = test system: buckwheat embryos; assay: Soluble carbohydrates in buckwheat embryos from seeds matured at 15, 22 or 30° C.; type: in vivo, Fagopyrum esculentum Moench; conditions: harvested at 28 DAP and dried 2 weeks at 12% RH, mean ± SE
[2] = test system: buckwheat explants; assay: Buckwheat explant feeding with 100 mM cyclitol in 1% sucrose for 5 days, soluble carbohydrates in embryos and leaf disks; type: in vivo, Fagopyrum esculentum; conditions: replicate values
[3] = test system: soybean explants; assay: Soybean explant feeding 3 days with 50 mM cyclitol in 1% sucrose, slow drying time course, soluble carbohydrates in axis, cotyledon, seed coat and leaf
[4] = 3 days transport of sucrose (1%) and D-chiro-inositol (50 mM), after 2 days slow drying, Rep 1
[5] = 3 days transport of sucrose (1%) and D-chiro-inositol (50 mM), after 2 days slow drying, Rep 2
[6] = 3 days transport of sucrose (1%) and D-chiro-inositol (50 mM), after 4 days slow drying, Rep 1
[7] = 3 days transport of sucrose (1%) and D-chiro-inositol (50 mM), after 4 days slow drying, Rep 2
[8] = 3 days transport of sucrose (1%) and D-chiro-inositol (50 mM), after 14 days slow drying, Rep 1
[9] = 3 days transport of sucrose (1%) and D-chiro-inositol (50 mM), after 14 days slow drying, Rep 2
[10] = 3 days transport of sucrose (1%) and D-chiro-inositol (50 mM), before slow drying, Rep 1
[11] = 3 days transport of sucrose (1%) and D-chiro-inositol (50 mM), before slow drying, Rep 2
[12] = 3 days transport of sucrose (1%) and D-pinitol (50 mM), after 2 days slow drying, Rep 1
[13] = 3 days transport of sucrose (1%) and D-pinitol (50 mM), after 2 days slow drying, Rep 2
[14] = 3 days transport of sucrose (1%) and D-pinitol (50 mM), after 4 days slow drying, Rep 1
[15] = 3 days transport of sucrose (1%) and D-pinitol (50 mM), after 4 days slow drying, Rep 2

Compound: OC[C@H]1O[C@H](OC2[C@@H](O)[C@H](O)C(O)[C@H](O)[C@@H]2O)[C@H](O)[C@@H](O)[C@H]1O (stereo partly drawn) [Galactinol, galactinol, reference compound]
- Soluble carbohydrates in buckwheat embryos ([1]; seeds matured at 15° C.): 0 μg/embryo
- Soluble carbohydrates in buckwheat embryos ([1]; seeds matured at 22° C.): 1.57 ± 0.79 μg/embryo
- Soluble carbohydrates in buckwheat embryos ([1]; seeds matured at 30° C.): 1.60 ± 0.04 μg/embryo
- Soluble carbohydrates in embryos of seeds from buckwheat explants ([2]; fed 100 mM D-chiro-inositol in 1% sucrose solution 5 days, 2 days slow drying): 9.84 μg/embryo and 3.63 μg/embryo
- Soluble carbohydrates in embryos of seeds from buckwheat explants ([2]; fed 100 mM D-chiro-inositol in 1% sucrose solution 5 days, 4 days slow drying): 6.82 μg/embryo and 3.90 μg/embryo and 2.70 μg/embryo
- Soluble carbohydrates in embryos of seeds from buckwheat explants ([2]; fed 100 mM D-chiro-inositol in 1% sucrose solution 5 days, 7 days slow drying): 7.21 μg/embryo and 1.71 μg/embryo and 0 μg/embryo
- Soluble carbohydrates in embryos of seeds from buckwheat explants ([2]; fed 100 mM D-chiro-inositol in 1% sucrose solution, after 1 day feeding): 0 μg/embryo
- Soluble carbohydrates in embryos of seeds from buckwheat explants ([2]; fed 100 mM D-chiro-inositol in 1% sucrose solution, after 5 days feeding): 3.15 μg/embryo and 3.75 μg/embryo and 2.62 μg/embryo
- Soluble carbohydrates in embryos of seeds from buckwheat explants ([2]; fed 100 mM D-pinitol in 1% sucrose solution 5 days, 2 days slow drying): 10.69 μg/embryo and 7.75 μg/embryo and 2.79 μg/embryo
- Soluble carbohydrates in embryos of seeds from buckwheat explants ([2]; fed 100 mM D-pinitol in 1% sucrose solution 5 days, 4 days slow drying): 2.68 μg/embryo and 4.14 μg/embryo and 3.31 μg/embryo
- Soluble carbohydrates in embryos of seeds from buckwheat explants ([2]; fed 100 mM D-pinitol in 1% sucrose solution 5 days, 7 days slow drying): 0 μg/embryo (2×) and 1.24 μg/embryo
- Soluble carbohydrates in embryos of seeds from buckwheat explants ([2]; fed 100 mM D-pinitol in 1% sucrose solution, after 1 day feeding): 2.51 μg/embryo
- Soluble carbohydrates in embryos of seeds from buckwheat explants ([2]; fed 100 mM D-pinitol in 1% sucrose solution, after 5 days feeding): 0 μg/embryo and 3.26 μg/embryo and 3.40 μg/embryo
- Soluble carbohydrates in embryos of seeds from buckwheat explants ([2]; fed 100 mM myo-inositol in 1% sucrose solution 5 days, 2 days slow drying): 10.36 μg/embryo and 3.46 μg/embryo
- Soluble carbohydrates in embryos of seeds from buckwheat explants ([2]; fed 100 mM myo-inositol in 1% sucrose solution 5 days, 4 days slow drying): 8.41 μg/embryo and 4.79 μg/embryo
- Soluble carbohydrates in embryos of seeds from buckwheat explants ([2]; fed 100 mM myo-inositol in 1% sucrose solution 5 days, 7 days slow drying): 2.09 μg/embryo and 0 μg/embryo
- Soluble carbohydrates in embryos of seeds from buckwheat explants ([2]; fed 100 mM myo-inositol in 1% sucrose solution, after 1 day feeding): 0 μg/embryo
- Soluble carbohydrates in embryos of seeds from buckwheat explants ([2]; fed 100 mM myo-inositol in 1% sucrose solution, after 5 days feeding): 19.19 μg/embryo and 3.71 μg/embryo
- Soluble carbohydrates in embryos of seeds from buckwheat explants ([2]; fed 1% sucrose (without cyclitols) solution 5 days, 2 days slow drying): 15.87 μg/embryo and 10.02 μg/embryo and 5.03 μg/embryo
- Soluble carbohydrates in embryos of seeds from buckwheat explants ([2]; fed 1% sucrose (without cyclitols) solution 5 days, 4 days slow drying): 26.38 μg/embryo and 8.45 μg/embryo
- Soluble carbohydrates in embryos of seeds from buckwheat explants ([2]; fed 1% sucrose (without cyclitols) solution 5 days, 7 days slow drying): 0 μg/embryo and 5.93 μg/embryo
- Soluble carbohydrates in embryos of seeds from buckwheat explants ([2]; fed 1% sucrose (without cyclitols) solution, after 5 days feeding): 1.47 μg/embryo and 19.03 μg/embryo
- Accumulation of soluble carbohydrates in soybean axis [3, 4]: 6.29 μg/axis
- Accumulation of soluble carbohydrates in soybean cotyledon [3, 4]: 42.99 μg/cotyledon
- Accumulation of soluble carbohydrates in soybean seed coat [3, 4]: 0 μg/seed coat
- Accumulation of soluble carbohydrates in soybean axis [3, 5]: 10.19 μg/axis
- Accumulation of soluble carbohydrates in soybean cotyledon [3, 5]: 42.35 μg/cotyledon
- Accumulation of soluble carbohydrates in soybean seed coat [3, 5]: 1.30 μg/seed coat
- Accumulation of soluble carbohydrates in soybean axis [3, 6]: 3.46 μg/axis
- Accumulation of soluble carbohydrates in soybean cotyledon [3, 6]: 15.89 μg/cotyledon
- Accumulation of soluble carbohydrates in soybean seed coat [3, 6]: 0 μg/seed coat
- Accumulation of soluble carbohydrates in soybean axis [3, 7]: 2.25 μg/axis
- Accumulation of soluble carbohydrates in soybean cotyledon [3, 7]: 32.53 μg/cotyledon
- Accumulation of soluble carbohydrates in soybean seed coat [3, 7]: 1.19 μg/seed coat
- Accumulation of soluble carbohydrates in soybean axis [3, 8]: 4.23 μg/axis
- Accumulation of soluble carbohydrates in soybean cotyledon [3, 8]: 11.02 μg/cotyledon
- Accumulation of soluble carbohydrates in soybean seed coat [3, 8]: 0 μg/seed coat
- Accumulation of soluble carbohydrates in soybean axis [3, 9]: 2.27 μg/axis
- Accumulation of soluble carbohydrates in soybean cotyledon [3, 9]: 9.34 μg/cotyledon
- Accumulation of soluble carbohydrates in soybean seed coat [3, 9]: 1.60 μg/seed coat
- Accumulation of soluble carbohydrates in soybean axis [3, 10]: 0 μg/axis
- Accumulation of soluble carbohydrates in soybean cotyledon [3, 10]: 14.29 μg/cotyledon
- Accumulation of soluble carbohydrates in soybean axis [3, 11]: 2.71 μg/axis
- Accumulation of soluble carbohydrates in soybean cotyledon [3, 11]: 0 μg/cotyledon
- Accumulation of soluble carbohydrates in soybean axis [3, 12]: 6.40 μg/axis
- Accumulation of soluble carbohydrates in soybean cotyledon [3, 12]: 28.42 μg/cotyledon
- Accumulation of soluble carbohydrates in soybean seed coat [3, 12]: 0 μg/seed coat
- Accumulation of soluble carbohydrates in soybean axis [3, 13]: 10.37 μg/axis
- Accumulation of soluble carbohydrates in soybean cotyledon [3, 13]: 40.81 μg/cotyledon
- Accumulation of soluble carbohydrates in soybean seed coat [3, 13]: 0 μg/seed coat
- Accumulation of soluble carbohydrates in soybean axis [3, 14]: 5.46 μg/axis
- Accumulation of soluble carbohydrates in soybean cotyledon [3, 14]: 20.87 μg/cotyledon
- Accumulation of soluble carbohydrates in soybean seed coat [3, 14]: 0 μg/seed coat
- Accumulation of soluble carbohydrates in soybean axis [3, 15]: 2.87 μg/axis
- Accumulation of soluble carbohydrates in soybean cotyledon [3, 15]: 37.07 μg/cotyledon
- Accumulation of soluble carbohydrates in soybean seed coat [3, 15]: 0 μg/seed coat
- Accumulation of soluble carbohydrates in soybean axis ([3]; 3 days transport of sucrose (1%) and D-pinitol (50 mM), after 14 days slow drying, Rep 1): 3.92 μg/axis
